Paper PMC5675994
Results are given in words; binding and its absence hold for the method and conditions named. Binding seen in cells or lysates may run through a third protein. A yes stands for co-enrichment or nearness to the bait. Other partners may have been found. For part of these data: Tags and fused reporters may be left off the sequences shown.

By UniProt entry, the sequences of proteins in these tests, tags left out. Where a name states a change or a piece, a line headed by the entry shows the natural chain unless it says otherwise.
UniProt Q07540: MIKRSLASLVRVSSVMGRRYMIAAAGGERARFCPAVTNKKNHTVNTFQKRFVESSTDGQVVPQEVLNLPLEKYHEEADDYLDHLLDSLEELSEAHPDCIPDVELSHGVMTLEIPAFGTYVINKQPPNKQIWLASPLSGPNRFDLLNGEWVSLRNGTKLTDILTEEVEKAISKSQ

T1: Nfs1-His6 (S. cerevisiae) (UniProt P25374)
T1 sequence: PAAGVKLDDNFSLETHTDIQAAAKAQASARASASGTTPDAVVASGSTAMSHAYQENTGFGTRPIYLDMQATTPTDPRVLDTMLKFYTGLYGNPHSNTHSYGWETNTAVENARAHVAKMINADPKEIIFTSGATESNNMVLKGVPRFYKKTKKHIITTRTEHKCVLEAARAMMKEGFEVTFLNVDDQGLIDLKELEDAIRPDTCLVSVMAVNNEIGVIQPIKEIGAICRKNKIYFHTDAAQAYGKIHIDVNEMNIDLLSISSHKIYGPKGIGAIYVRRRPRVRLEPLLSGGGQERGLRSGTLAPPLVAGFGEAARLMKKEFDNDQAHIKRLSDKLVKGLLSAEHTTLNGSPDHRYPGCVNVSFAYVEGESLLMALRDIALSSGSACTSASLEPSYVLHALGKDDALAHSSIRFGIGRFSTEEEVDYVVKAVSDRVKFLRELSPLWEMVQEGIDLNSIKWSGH


Legend:
[1] = target: T1, Nfs1-His6 (S. cerevisiae); experiment: affinity purification with mass spectrometry; Nfs1-His6 held on Ni-NTA superflow agarose from sonicated, cleared lysate of isolated mitochondria of the Gal-Nfs1-His6 yeast strain; 50 mM TrisCl pH 7.5, 80 mM KCl, 10% glycerol, wash 40 mM imidazole, elution 400 mM imidazole; eluate analysed by LC-MS/MS
[2] = target: Yfh1-His6 (S. cerevisiae) (UniProt Q07540); experiment: affinity purification with mass spectrometry; Yfh1-His6 held on Ni-NTA superflow agarose from French-press lysate (108,000xg supernatant) of isolated mitochondria of the Yfh1-His6 yeast strain; 50 mM TrisCl pH 7.5, 80 mM KCl, 10% glycerol, wash 40 mM imidazole with 0.1% Triton X-100, elution 400 mM imidazole; eluate analysed by LC-MS/MS

| binding [1] | binding [2] | Binder |
| --- | --- | --- |
| binds | binds | Uncharacterized protein YHR097C (protein, UniProt P38809 1-366) MNQTGRTIGGPQNGVNTVINPFRVSPSEDRVSSRDETPRNYNNPFLNEDDTRRAHNSSVSNSRQERLPSYEEAAGTPKQQAPYPKEKKRSSGSNSHQHNHHHHRRTSHGHRDKDKQKSKSRTKVKPPKNVDTIDKMDVTGLFGGSFHHDGPFDACTPQRNKNNKVAPVLAFPADGPNNTVGGRTSKKSTLDEVFGRETVDDDSETLNQLQDRAYLFNKANSSTTTLDAIKPNSKNITQFDSKMKTELVHGPITMGLGSTTFLDGAPASSAAIEQDVINHAQESRRKNSIARKKSLPSRRHLQVNNNNLKLVKTHSGHLEQKDVDDNRTSVPVTATQGSGHEDVVKKENTGNKLLRRVKSLKTSKKH |
| binds | binds | Intrastrand cross-link recognition protein (protein, UniProt P33417 1-597) MNTGISPKQDDASNSNLLNIGQDHSLQYQGLEHNDSQYRDASHQTPHQYLNQFQAQPQQQQQQQQQQQQQQQQAPYQGHFQQSPQQQQQNVYYPLPPQSLTQPTSQSQQQQQQQQQQQYANSNSNSNNNVNVNALPQDFGYMQQTGSGQNYPTINQQQFSEFYNSFLSHLTQKQTNPSVTGTGASSNNNSNNNNVSSGNNSTSSNPAQLAASQLNPATAAAAAANNAAGPASYLSQLPQVQRYYPNNMNALSSLLDPSSAGNAAGNANTATHPGLLPPNLQPQLTHHQQQMQQQLQLQQQQQLQQQQQLQQQHQLQQQQQLQQQHHHLQQQQQQQQHPVVKKLSSTQSRIERRKQLKKQGPKRPSSAYFLFSMSIRNELLQQFPEAKVPELSKLASARWKELTDDQKKPFYEEFRTNWEKYRVVRDAYEKTLPPKRPSGPFIQFTQEIRPTVVKENPDKGLIEITKIIGERWRELDPAKKAEYTETYKKRLKEWESCYPDENDPNGNPTGHSHKAMNMNLNMDTKIMENQDSIEHITANAIDSVTGSNSNSTNPNTPVSPPISLQQQPLQQQQQQQQQQQHMLLADPTTNGSIIKNE |
| binds | binds | Nicotinamidase (protein, UniProt P53184 1-216) MKTLIVVDMQNDFISPLGSLTVPKGEELINPISDLMQDADRDWHRIVVTRDWHPSRHISFAKNHKDKEPYSTYTYHSPRPGDDSTQEGILWPVHCVKNTWGSQLVDQIMDQVVTKHIKIVDKGFLTDREYYSAFHDIWNFHKTDMNKYLEKHHTDEVYIVGVALEYCVKATAISAAELGYKTTVLLDYTRPISDDPEVINKVKEELKAHNINVVDK |
| binds | binds | Probable serine/threonine-protein kinase RTK1 (protein, UniProt Q12100 1-620) MVKETPLHSSSSTSLSSLFRPTKLKNLSAKIFNGGGNQSYSKTDDVSRSSSRSSKKNTDSDQEDQIKYNKPNDRRSTIGKSPQGNGALSKESHVVASSTLTGISPTSAKKAPIDYSPSRPLPNNHNPVRTGHTVPHLPHSIHNPINYIHQGSKDAFHHPHPVRSTAHSNISTVSSAKSDTPSSNLSYQAHMHPVEILQKQIEDKHFMDSQASTPGSVELQHNSSSGSDDTSSRKKKSLRLTRFFKKIHNDYHDNHHHHHHHNRGSTPTKPKLNLNTNENIVESNGKALYETDNPVELLEKYGIPGRKLGEGASGSVSVVERTDGKLFACKMFRKPHLNNEGTNQSQLANYSKKVTTEFCIGSTLHHENIVETLDMLTEGDTYLLVMEYAPYDFFNLVMSNLMTQDEVNCYFKQLCHGVNYLHSMGLAHRDLKLDNCVVTKDGILKLIDFGSAVVFQYPYEDTIVKSHGIVGSDPYLAPELLKQTSYDPRVADVWSIAIIFYCMVLKRFPWKAPKKSFNSFRLFTEEPEDEDDIVRGPNKILRLLPRHSRTIIGRMLALEPKQRVLMNDVVKDDWLVSVPSCEVDPTSGDLVEKPKNHKHHLVTEEELNELTKQHGNKDSN |
| binds | binds | Serine hydroxymethyltransferase, cytosolic (protein, UniProt P37291 1-469) MPYTLSDAHHKLITSHLVDTDPEVDSIIKDEIERQKHSIDLIASENFTSTSVFDALGTPLSNKYSEGYPGARYYGGNEHIDRMEILCQQRALKAFHVTPDKWGVNVQTLSGSPANLQVYQAIMKPHERLMGLYLPDGGHLSHGYATENRKISAVSTYFESFPYRVNPETGIIDYDTLEKNAILYRPKVLVAGTSAYCRLIDYKRMREIADKCGAYLMVDMAHISGLIAAGVIPSPFEYADIVTTTTHKSLRGPRGAMIFFRRGVRSINPKTGKEVLYDLENPINFSVFPGHQGGPHNHTIAALATALKQAATPEFKEYQTQVLKNAKALESEFKNLGYRLVSNGTDSHMVLVSLREKGVDGARVEYICEKINIALNKNSIPGDKSALVPGGVRIGAPAMTTRGMGEEDFHRIVQYINKAVEFAQQVQQSLPKDACRLKDFKAKVDEGSDVLNTWKKEIYDWAGEYPLAV |
| binds | binds | Alcohol dehydrogenase 3, mitochondrial (protein, UniProt P07246 25-375) QSTAAIPKTQKGVIFYENKGKLHYKDIPVPEPKPNEILINVKYSGVCHTDLHAWHGDWPLPVKLPLVGGHEGAGVVVKLGSNVKGWKVGDLAGIKWLNGSCMTCEFCESGHESNCPDADLSGYTHDGSFQQFATADAIQAAKIQQGTDLAEVAPILCAGVTVYKALKEADLKAGDWVAISGAAGGLGSLAVQYATAMGYRVLGIDAGEEKEKLFKKLGGEVFIDFTKTKNMVSDIQEATKGGPHGVINVSVSEAAISLSTEYVRPCGTVVLVGLPANAYVKSEVFSHVVKSINIKGSYVGNRADTREALDFFSRGLIKSPIKIVGLSELPKVYDLMEKGKILGRYVVDTSK |
| binds | binds | Cap-associated protein CAF20 (protein, UniProt P12962 1-161) MIKYTIDELFQLKPSLTLEVNFDAVEFRAIIEKVKQLQHLKEEEFNSHHVGHFGRRRSSHHHGRPKIKHNKPKVTTDSDGWCTFEAKKKGSGEDDEEETETTPTSTVPVATIAQETLKVKPNNKNISSNRPADTRDIVADKPILGFNAFAALESEDEDDEA |
| binds | binds | Peroxisomal acyl-coenzyme A thioester hydrolase 1 (protein, UniProt P41903 1-349) MSASKMAMSNLEKILELVPLSPTSFVTKYLPAAPVGSKGTFGGTLVSQSLLASLHTVPLNFFPTSLHSYFIKGGDPRTKITYHVQNLRNGRNFIHKQVSAYQHDKLIFTSMILFAVQRSKEHDSLQHWETIPGLQGKQPDPHRYEEATSLFQKEVLDPQKLSRYASLSDRFQDATSMSKYVDAFQYGVMEYQFPKDMFYSARHTDELDYFVKVRPPITTVEHAGDESSLHKHHPYRIPKSITPENDARYNYVAFAYLSDSYLLLTIPYFHNLPLYCHSFSVSLDHTIYFHQLPHVNNWIYLKISNPRSHWDKHLVQGKYFDTQSGRIMASVSQEGYVVYGSERDIRAKF |
| binds | binds | Factor arrest protein 8 (protein, UniProt Q05040 1-523) MAINQAHVHPHYTLPGVMHYLQTEFTKNERDRITWELERSEMKARIAELEGENRDLKHQLNQIQSKAVSPEGEKEEKHVPDSLLQSKLAVQENVKEIIYLLKGPNTVNQLESLNSREAGSELHDLEKLNVNTPKEEGSAKTNGMDILNNALLDTKPNPKQGPSESPSPTKVKSLFSTANKRENNETISKIHSELSKVDIISSYGDCMALYDADTKSLEIHQVDANLNSKLLKKISLGQDSDIMKFFWVSTSKLLVIEKSFHLKLFSISSASLISDVDLLQDSEQPFSSSDIINIDFKNKWLLIASKNKSQIRIWELDNIEAPEDVPINIKETYEITHDNDDDDSNDSTNILDCILGITEKSLILLSSNPYQLTIYDFEGKLLQKIDLKIDTILSGKPEEEGYHLFLDRKTSKLLIQLSNERLLVYSFDKKKVVLKEQLTPSSTLPIQLDLNDSIITVSYSNGDFEFRNLENLKPSIDEFVVADINFSERKEPVVFSSNLIVDSTPVLITVNKNNEVLLHKIKI |
| binds | binds | Iron sulfur cluster assembly protein 1, mitochondrial (protein, UniProt Q03020 28-165) SSITKRLYHPKVIEHYTHPRNVGSLDKKLPNVGTGLVGAPACGDVMRLQIKVNDSTGVIEDVKFKTFGCGSAIASSSYMTELVQGMTLDDAAKIKNTEIAKELSLPPVKLHCSMLAEDAIKAAIKDYKSKRNTPTMLS |
| binds | binds | (R,R)-butanediol dehydrogenase (protein, UniProt P39714 1-382) MRALAYFKKGDIHFTNDIPRPEIQTDDEVIIDVSWCGICGSDLHEYLDGPIFMPKDGECHKLSNAALPLAMGHEMSGIVSKVGPKVTKVKVGDHVVVDAASSCADLHCWPHSKFYNSKPCDACQRGSENLCTHAGFVGLGVISGGFAEQVVVSQHHIIPVPKEIPLDVAALVEPLSVTWHAVKISGFKKGSSALVLGAGPIGLCTILVLKGMGASKIVVSEIAERRIEMAKKLGVEVFNPSKHGHKSIEILRGLTKSHDGFDYSYDCSGIQVTFETSLKALTFKGTATNIAVWGPKPVPFQPMDVTLQEKVMTGSIGYVVEDFEEVVRAIHNGDIAMEDCKQLITGKQRIEDGWEKGFQELMDHKESNVKILLTPNNHGEMK |
| binds | binds | Acyl carrier protein, mitochondrial (protein, UniProt P32463 37-125) SANLSKDQVSQRVIDVIKAFDKNSPNIANKQISSDTQFHKDLGLDSLDTVELLVAIEEEFDIEIPDKVADELRSVGETVDYIASNPDAN |
